# Measured data: PubChem BioAssay AID1508587 (Peter MacCallum Cancer Centre, 2020)
# Test: 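Retest of knockdowns boosting BRAF inhibitor action on lactate release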 (follow-up of hits)
# System: human WM266.4 melanoma cells with a BRAF V600 mutation
# Reagents: single siRNA against human genes, 25 nM
# Time to read-out: 96 h
# Challenge: vemurafenib 300 nM (about IC25), given 48 h after transfection for 48 h
# Measured: 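Medium lactate read by absorbance over DAPI-counted nuclei; ratio with versus without vemurafenib, set against non-targeting siRNA, averaged over 2 replicates; cell number also recorded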
# Reading the numbers: lactate per cell, drug vs no drug: higher = less drug-induced drop in lactate per cell; lactate per cell with vemurafenib: higher = more lactate per cell under drug; lactate per cell without drug: higher = more lactate per cell without drug; cell growth with vemurafenib and cell growth without drug: higher = more cell growth over 48 h
# Active means: 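Enhancer call for any duplex whose drug versus no-drug per-cell lactate ratio is below 0.55 (2 SD beneath non-targeting average); genes confirmed when at least 2 of their 4 duplexes qualify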
# The deposit covers about 1,600 reagents; shown is an unselected part. In the full data, 623 (39%) got an active call. 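Calls are for each duplex; lactate ratios contain extreme outliers.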 A number with no mark means an inactive call. Reagents against one gene are numbered here.
gene symbol,reagent,"lactate per cell, drug vs no drug",lactate per cell with vemurafenib,lactate per cell without drug,cell growth with vemurafenib,cell growth without drug
LCE4A (late cornified envelope 4A),1,0.58,0.92,1.04,1.05,1.15
LCE4A (late cornified envelope 4A),2,0.64,1.17,1.19,0.41,0.49
LCE4A (late cornified envelope 4A),3,0.72,0.9,0.82,0.61,0.99
LCE4A (late cornified envelope 4A),4,0.52 (active),2.9,3.74,0.04,-0.06
TIMM8B (translocase of inner mitochondrial membrane 8 homolog B),1,0.64,1.4,1.44,0.18,0.34
TIMM8B (translocase of inner mitochondrial membrane 8 homolog B),2,0.74,3.33,2.95,0.08,0.06
TIMM8B (translocase of inner mitochondrial membrane 8 homolog B),3,0.52 (active),0.61,0.77,1.12,1.19
TIMM8B (translocase of inner mitochondrial membrane 8 homolog B),4,0.66,1.04,1.04,0.73,0.72
ACSF3 (acyl-CoA synthetase family member 3),1,0.8,1.5,1.31,0.09,0.29
ACSF3 (acyl-CoA synthetase family member 3),2,0.56,1.79,2.27,0.18,0.1
ACSF3 (acyl-CoA synthetase family member 3),3,0.71,1.02,0.94,0.95,1.11
ACSF3 (acyl-CoA synthetase family member 3),4,0.46 (active),0.66,0.94,0.53,0.65

A stretch taken from the entries so far:
gene symbol,reagent,"lactate per cell, drug vs no drug",lactate per cell with vemurafenib,lactate per cell without drug,cell growth with vemurafenib,cell growth without drug
LCE4A (late cornified envelope 4A),2,0.64,1.17,1.19,0.41,0.49
LCE4A (late cornified envelope 4A),3,0.72,0.9,0.82,0.61,0.99
LCE4A (late cornified envelope 4A),4,0.52 (active),2.9,3.74,0.04,-0.06
TIMM8B (translocase of inner mitochondrial membrane 8 homolog B),1,0.64,1.4,1.44,0.18,0.34

More entries follow:
gene symbol,reagent,"lactate per cell, drug vs no drug",lactate per cell with vemurafenib,lactate per cell without drug,cell growth with vemurafenib,cell growth without drug
PAEP (progestagen associated endometrial protein),1,0.48 (active),1.09,1.38,0.23,0.06
PAEP (progestagen associated endometrial protein),2,0.72,1.39,1.18,0.8,0.67
PAEP (progestagen associated endometrial protein),3,0.52 (active),0.56,0.64,0.94,1.1
PAEP (progestagen associated endometrial protein),4,0.41 (active),1.18,1.7,0.3,0.27
CCZ1 (CCZ1 vacuolar protein trafficking and biogenesis associated),1,0.62,1.77,1.93,0.35,0.17
CCZ1 (CCZ1 vacuolar protein trafficking and biogenesis associated),2,0.83,0.84,0.68,0.74,1.06
CCZ1 (CCZ1 vacuolar protein trafficking and biogenesis associated),3,0.42 (active),0.76,1.22,0.25,0.15
CCZ1 (CCZ1 vacuolar protein trafficking and biogenesis associated),4,0.7,1.07,1.04,1.13,0.99
LRRN4 (leucine rich repeat neuronal 4),1,0.22 (active),0.15,0.42,0.31,0.94
LRRN4 (leucine rich repeat neuronal 4),2,0.45 (active),1.29,1.76,0.84,0.34
LRRN4 (leucine rich repeat neuronal 4),3,0.64,2.48,2.4,0.44,0.25
LRRN4 (leucine rich repeat neuronal 4),4,0.44 (active),1.14,1.9,-0.01,0.02
IMMT (inner membrane mitochondrial protein),1,0.66,1.21,1.14,0.78,0.72
IMMT (inner membrane mitochondrial protein),2,0.35 (active),0.52,1,0.43,0.53
IMMT (inner membrane mitochondrial protein),3,0.58,0.98,1.07,0.8,0.88
IMMT (inner membrane mitochondrial protein),4,0.82,1.64,1.28,0.67,0.81
SPATA31E1 (SPATA31 subfamily E member 1),1,0.33 (active),1.12,2.16,0.07,0.06
SPATA31E1 (SPATA31 subfamily E member 1),2,0.68,2.39,2.21,0.22,0.22
SPATA31E1 (SPATA31 subfamily E member 1),3,0.5 (active),1.25,1.56,0.44,0.25
SPATA31E1 (SPATA31 subfamily E member 1),4,0.83,0.91,0.7,-0.01,0.36
KCTD18 (potassium channel tetramerization domain containing 18),1,0.64,1.9,1.85,0.7,0.54
KCTD18 (potassium channel tetramerization domain containing 18),2,0.67,1.21,1.12,0.45,0.49
KCTD18 (potassium channel tetramerization domain containing 18),3,0.45 (active),0.6,0.83,0.18,0.56
KCTD18 (potassium channel tetramerization domain containing 18),4,0.42 (active),0.82,1.34,-0.01,0.09
